# Assay results published in article PMC7819943, “Rice protein-binding microarrays: a tool to detect cis-acting elements near promoter regions in rice”.
# By UniProt entry, the sequences of proteins in these tests, tags left out.
# UniProt Q0JBA9, entry or part of it: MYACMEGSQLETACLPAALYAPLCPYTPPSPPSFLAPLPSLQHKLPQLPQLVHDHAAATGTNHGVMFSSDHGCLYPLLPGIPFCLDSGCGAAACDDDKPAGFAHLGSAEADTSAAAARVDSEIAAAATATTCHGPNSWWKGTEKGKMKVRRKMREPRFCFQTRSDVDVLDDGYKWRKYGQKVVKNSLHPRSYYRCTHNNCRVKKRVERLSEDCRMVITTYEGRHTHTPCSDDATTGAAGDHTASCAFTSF
# The other results are listed elsewhere or left out.
# Molecular target: OsWRKY34 (Oryza sativa, UniProt Q0JBA9 1-250)
# Test: protein-binding microarray (RPBM); PBS, 2% BSA, 51.3 ng/ul salmon testes DNA, 50 uM zinc acetate, 200 nM TF, 25 C, 1 h; high values mean tight binding
# Conditions: protein: recombinant; tags: N-terminal polyhistidine and DsRed monomer fusion (pET32a); label: CyDye5-dUTP incorporated in the synthesized complementary strand; 3' TTTTT single-stranded linker to array surface; dsDNA, one strand shown
# Outline: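 Binding signal is defined as the fluorescence intensity of each feature in arbitrary units, read on an Axon 4000B scanner. Transcription factors with N-terminal polyhistidine and DsRed fusions came from E. coli BL21-CodonPlus and were purified on Ni–NTA. They were incubated at 200 nM for 1 h at 25 °C on a custom Agilent array that had been made double-stranded with Cy5-dUTP, with 50 µM zinc acetate present, and the array was washed.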
row,Sequence,binding signal
1,ACTCCCAACTTTCATACCGAAAATTTTATCTTCAAACTATCGGAGTCACCTAGTGCAG,10200 fluorescence intensity (a.u.)
2,ATGAGTTCTACGACGTTCTTATTGACTAGTCCATCGTTCCCGGAGTCACCTAGTGCAG,9500 fluorescence intensity (a.u.)
3,AGCCTATTTTGCCTCCGTCTCCTCTTGTCCCTGGACGAATCGGAGTCACCTAGTGCAG,9560 fluorescence intensity (a.u.)
4,CCCCGACGACCAACTGCTCTCAAAACTGAACTCCTCACCTCGGAGTCACCTAGTGCAG,10600 fluorescence intensity (a.u.)
5,TCTTTCTTCCATTGCACCTAGCTTTCATCTTCTTCTCTTCCGGAGTCACCTAGTGCAG,14200 fluorescence intensity (a.u.)
6,ATAAATTTAGTCAAACTTGAAACAATTTAACTTTGGCTAACGGAGTCACCTAGTGCAG,8920 fluorescence intensity (a.u.)
7,CCGTCGTGCTGCGCCCTTCAATTTGTTGGTCTCGCTCGCCCGGAGTCACCTAGTGCAG,8490 fluorescence intensity (a.u.)
8,CCTGATTTGGAGGTTTTGTTGGGTGCAGACCATTCAGGGGCGGAGTCACCTAGTGCAG,8290 fluorescence intensity (a.u.)
9,CGATGACAAGTTGACGCACCTTGGGTGTACTTTTTCCTTCCGGAGTCACCTAGTGCAG,8280 fluorescence intensity (a.u.)
10,ATGTCTCACAACGTTCATGTATTCCACCCAGGGCCCAGTTCGGAGTCACCTAGTGCAG,8300 fluorescence intensity (a.u.)
11,CTTTTTCTTGTCCTTTTTCTTATTGCGCTGCTCAGTTGCTCGGAGTCACCTAGTGCAG,10000 fluorescence intensity (a.u.)
12,TCATTTATTTTCCAGTTCCGCCTCCGTTTCAACCCTCTCTCGGAGTCACCTAGTGCAG,9010 fluorescence intensity (a.u.)
13,CCGTTCTCTGCTGCTACATCTCGTCGCCTCGCCGGCGCCACGGAGTCACCTAGTGCAG,12300 fluorescence intensity (a.u.)
14,TTTTCCTATTTTTTCTTGTAGCGAAGTCCACTAAATTTAACGGAGTCACCTAGTGCAG,10800 fluorescence intensity (a.u.)
15,CACCAAACCACCACCACTCTCCTCGGCTTGTGTCGCGTGTCGGAGTCACCTAGTGCAG,11300 fluorescence intensity (a.u.)
16,GTTCCATATTACTTGTCGCTTTGAGTTTTTTTAAAAAAAACGGAGTCACCTAGTGCAG,10500 fluorescence intensity (a.u.)
17,TCCTTGCGGTGCTCATGCTTTCCCTTCTTAGGTGTCGCGTCGGAGTCACCTAGTGCAG,8210 fluorescence intensity (a.u.)
18,CTCTCTCCATTCCATTTTAAGTTTTTATATACAACGTTTACGGAGTCACCTAGTGCAG,8950 fluorescence intensity (a.u.)
19,TTTTTTCTTACACTATTTTACCACTCGTCTTATTTAAAAACGGAGTCACCTAGTGCAG,8100 fluorescence intensity (a.u.)
20,TCGGTTTCCGCTTTCCATGCCGCGATCGCCATTTGTTTTTCGGAGTCACCTAGTGCAG,10800 fluorescence intensity (a.u.)
21,GCTTTCCGATCGTTTCCCGGCTCCATCCAATCCACTAGTTCGGAGTCACCTAGTGCAG,10700 fluorescence intensity (a.u.)

# As a working copy, some entries already given.
row,Sequence,binding signal
12,TCATTTATTTTCCAGTTCCGCCTCCGTTTCAACCCTCTCTCGGAGTCACCTAGTGCAG,9010 fluorescence intensity (a.u.)
13,CCGTTCTCTGCTGCTACATCTCGTCGCCTCGCCGGCGCCACGGAGTCACCTAGTGCAG,12300 fluorescence intensity (a.u.)

# The listing continues.

row,Sequence,binding signal
1,CCGTCGTCTATCTGTCTGCAGGTTATCTGCGTCGTCGTCTCGGAGTCACCTAGTGCAG,8320 fluorescence intensity (a.u.)
2,ACATAACACACCCGCTCAACATGACCGCGGCGCGTCCCTTCGGAGTCACCTAGTGCAG,9180 fluorescence intensity (a.u.)
3,CCATTTTACTTTCTTAGGCTCTCTTACCATTGTCCCTACTCGGAGTCACCTAGTGCAG,12800 fluorescence intensity (a.u.)
4,TGCTAATGGCCTGCTCCGTTTTCCGTGCCAGAGGGGTTATCGGAGTCACCTAGTGCAG,13500 fluorescence intensity (a.u.)
5,AGAACCATTGGCCCCACCTGCCAGCCACCATCCCCATATCCGGAGTCACCTAGTGCAG,8820 fluorescence intensity (a.u.)
6,TACTCTGCTCGATCGAATCGCTAGCTTTCTTCTTCTTCTTCGGAGTCACCTAGTGCAG,13600 fluorescence intensity (a.u.)
7,GGACCTACCCAAGTACGTGGACCCGCTGCCGCAGATGGCCCGGAGTCACCTAGTGCAG,8760 fluorescence intensity (a.u.)
8,TGTCAATTTTCTCACTCTAAAGAGTCCCTTTCAGTACAGTCGGAGTCACCTAGTGCAG,8100 fluorescence intensity (a.u.)
9,TCATCCCTTTCCAAACATTGCCAGACTGCCTAACTGTACACGGAGTCACCTAGTGCAG,8160 fluorescence intensity (a.u.)
10,AAAACAACAAGAGGACGCGAGGGGTCGGGGTGGGAGAGGGCGGAGTCACCTAGTGCAG,9940 fluorescence intensity (a.u.)
11,CGCACGCACGCACCGTCCTCGCGCCGGCTGCCCAACCCAACGGAGTCACCTAGTGCAG,8960 fluorescence intensity (a.u.)
12,CTCATTTTAGTTGGTCAATGTCTTTTGTTAAGTCTTGAAACGGAGTCACCTAGTGCAG,8540 fluorescence intensity (a.u.)
13,ACCGCTCCCGCCACCGCCACCCTCTCCCTCGTCGCATCGCCGGAGTCACCTAGTGCAG,8270 fluorescence intensity (a.u.)
14,ATTGGCACGCTATATGTCATCTCTGGGGTTGGTGGTAGCTCGGAGTCACCTAGTGCAG,10700 fluorescence intensity (a.u.)
15,CATGCTAGTGGGCCCACATTTTTTTTTGTGTGAATGACTACGGAGTCACCTAGTGCAG,8360 fluorescence intensity (a.u.)
16,CGCGTTTGTCAGATACCTAATTCGCCATGTCTTTCCTTTACGGAGTCACCTAGTGCAG,10400 fluorescence intensity (a.u.)
17,AGCACCTATAAATTCCATTCACCAGCTTCACTATGATTCACGGAGTCACCTAGTGCAG,8510 fluorescence intensity (a.u.)
18,AACCTCTCTATCCGCCAAAAACCCTACCCGCTCCACACGACGGAGTCACCTAGTGCAG,8940 fluorescence intensity (a.u.)
19,AGAGGTTCTGAACTCATCTTTGCTTGATTTGACCATCCTACGGAGTCACCTAGTGCAG,8590 fluorescence intensity (a.u.)
20,CATTGGGGAGGCTGACTGTAACACCGTGTATGCGTCGCATCGGAGTCACCTAGTGCAG,8240 fluorescence intensity (a.u.)
21,GAGGTAGTGGTTTAGAGGAGGAGGCGGAGAAGAGGAGGGACGGAGTCACCTAGTGCAG,9020 fluorescence intensity (a.u.)

row,Sequence,binding signal
1,TTCGCCATTTCCAACCCGTCGTCTCGCCTTCGCCTCGCCTCGGAGTCACCTAGTGCAG,9310 fluorescence intensity (a.u.)
2,GAAACCAATTGTCATATGTGGGTCCCATCATCTGACCCTCCGGAGTCACCTAGTGCAG,8230 fluorescence intensity (a.u.)
3,ATATATTGTGTTGTTACGGAGCGAGTTTTCCCATTGACCTCGGAGTCACCTAGTGCAG,9970 fluorescence intensity (a.u.)
4,GTATGCGAGATGAATATTGTCCTGGTTCTTTTAACGCCGTCGGAGTCACCTAGTGCAG,9550 fluorescence intensity (a.u.)
5,GTGAAACCGGTCGGTCACCCATCCCTTGTCCTCAGGTCCCCGGAGTCACCTAGTGCAG,8570 fluorescence intensity (a.u.)
6,CCACATTCGGCGTCGCACTCCTTCGTCTTCGCGTGATCCGCGGAGTCACCTAGTGCAG,11800 fluorescence intensity (a.u.)
7,ATGTGAACTCGTGTCTTTTTGCGGAAACTGTATGTTTAAACGGAGTCACCTAGTGCAG,8160 fluorescence intensity (a.u.)
8,CTCTCACTCTAATCATGCATTTAGACCGTTTCCATTTGCTCGGAGTCACCTAGTGCAG,12200 fluorescence intensity (a.u.)
9,TTTGCATTTGTTTTTGATAATTTTGTTTCTGATTTCAGCTCGGAGTCACCTAGTGCAG,8520 fluorescence intensity (a.u.)
10,TCCTGCACTCACCTTCCATTCTTCTCCTGCTAAGCTCCAGCGGAGTCACCTAGTGCAG,8610 fluorescence intensity (a.u.)
11,GGGCGGAGCGGGGCGGAGGGAGAGGAGGGAGAGGAGGGAGCGGAGTCACCTAGTGCAG,8480 fluorescence intensity (a.u.)
12,CCGCTCTCCCTTTGCCACCATCTCCGCTCCCGACACACACCGGAGTCACCTAGTGCAG,8840 fluorescence intensity (a.u.)
13,CCCGAACCCACCACCTCCGCCCATTTCCGCCTCCTCTCGACGGAGTCACCTAGTGCAG,9190 fluorescence intensity (a.u.)
14,CAACATGCATCCTAATGACAGCTACTGATCCTTCTAATCACGGAGTCACCTAGTGCAG,8640 fluorescence intensity (a.u.)
15,AGGCTTTATGTTTTTGTTAGGTCTGCACATCTGAAAGCTTCGGAGTCACCTAGTGCAG,8600 fluorescence intensity (a.u.)
16,GCCTGCTGTATATTTCTTTCTTATTGATGTCTCCATGAATCGGAGTCACCTAGTGCAG,9560 fluorescence intensity (a.u.)
17,TTTTTCTTTACCCATTTTTTTTCGCTTTTTCCTTTTTTCTCGGAGTCACCTAGTGCAG,11800 fluorescence intensity (a.u.)
18,AGTCTCAGTATAATTTGGTCGTGCTGTCGTGGTACAAATCCGGAGTCACCTAGTGCAG,8640 fluorescence intensity (a.u.)
19,GGGATTCGTGGGGATAATATGGGTTTATATGGAGTAAGGTCGGAGTCACCTAGTGCAG,13800 fluorescence intensity (a.u.)
20,TGGCTTCATTCCGCTTTTCCTACATGCACTGTTGACCTTGCGGAGTCACCTAGTGCAG,10700 fluorescence intensity (a.u.)
21,ATGTATTTCTTGCTTTATTCTCTCTTCGAACAGTGTTCTACGGAGTCACCTAGTGCAG,8940 fluorescence intensity (a.u.)

row,Sequence,binding signal
1,AGAGATCGGGGTTTGGTTTTTTGGAGGGGAGAGCGGAGTGCGGAGTCACCTAGTGCAG,10200 fluorescence intensity (a.u.)
2,CACCGCAACAGTTTCACTAATCACCAGTCATTACACTCTGCGGAGTCACCTAGTGCAG,8690 fluorescence intensity (a.u.)
3,CTCCCACCACCGCGCTTGCCTCCGGCCCCGTGCCGCGCTGCGGAGTCACCTAGTGCAG,8770 fluorescence intensity (a.u.)
4,TGCCAAGCACACACACCATCTGCATCTTCTCTTCTACCATCGGAGTCACCTAGTGCAG,8160 fluorescence intensity (a.u.)
5,AGTTCCTTCATCTGTCATCAAGCTTCAAACCGTTCCTAAACGGAGTCACCTAGTGCAG,10100 fluorescence intensity (a.u.)
6,CAGCTCCCACCGCGCACCATCATCGCCGCACCCTCGCTCTCGGAGTCACCTAGTGCAG,9710 fluorescence intensity (a.u.)
7,TGGGTGGGCATCAATCTAGACCCAGTCCACGTACGTGGGGCGGAGTCACCTAGTGCAG,8600 fluorescence intensity (a.u.)
8,ATTCCTTCGTTTTTCCTGTGGTCCAATCAAACGGCCATTCCGGAGTCACCTAGTGCAG,10100 fluorescence intensity (a.u.)
9,GCTACTATCAAGTCATAAGCTTACTACCAAGTTATAGCACCGGAGTCACCTAGTGCAG,8320 fluorescence intensity (a.u.)
10,GCTCCATCTTACCTCCATTTTATTTCCAGGTTTCTTTACTCGGAGTCACCTAGTGCAG,12300 fluorescence intensity (a.u.)
11,GGGTTTTATTTATTCCGATAAATTTTCGTTACTGTATTCGCGGAGTCACCTAGTGCAG,9750 fluorescence intensity (a.u.)
12,ATTTACATATTCCATCACAAAAAGTCGTATCTTGCGCCTACGGAGTCACCTAGTGCAG,8460 fluorescence intensity (a.u.)
13,AGAAACACCATGTCCCCTTCAATATGCATACAGCAACTTACGGAGTCACCTAGTGCAG,9000 fluorescence intensity (a.u.)
14,ACCTTTACTATAATAATACTGGACCCACATTTCATAGATACGGAGTCACCTAGTGCAG,8070 fluorescence intensity (a.u.)
15,CTTGTTCCATGTTAGTTCGAGCGCACACACACAATCACACCGGAGTCACCTAGTGCAG,8350 fluorescence intensity (a.u.)
16,GAGCCATCCACACTCTCTCAGTGGCTTTCCTCGCGATCCGCGGAGTCACCTAGTGCAG,8870 fluorescence intensity (a.u.)
17,CCAATAAGTGTGACATTCAATTCCTACGTTTTTTCTATTCCGGAGTCACCTAGTGCAG,8200 fluorescence intensity (a.u.)
18,ACTGTCCTGTCGTTAATTCATGAGTTAATCCTATACGGTTCGGAGTCACCTAGTGCAG,10500 fluorescence intensity (a.u.)
19,CTTCAGTCACGGCCCTATTGTACTGTTCCCAGTTACACCCCGGAGTCACCTAGTGCAG,8720 fluorescence intensity (a.u.)
20,CGTATGACTAGTGCTTGTTTATTTTATTTTTTTTCACACGCGGAGTCACCTAGTGCAG,9830 fluorescence intensity (a.u.)
21,TTTCTTAGAACTCATATTTGTCGATGGCATTTTTTGAATTCGGAGTCACCTAGTGCAG,8050 fluorescence intensity (a.u.)

# Quoted from the listing.
# binding signal with CGTATGACTAGTGCTTGTTTATTTTATTTTTTTTCACACGCGGAGTCACCTAGTGCAG reads 9830 fluorescence intensity (a.u.)
# binding signal with CAGCTCCCACCGCGCACCATCATCGCCGCACCCTCGCTCTCGGAGTCACCTAGTGCAG reads 9710 fluorescence intensity (a.u.)
# binding signal with GGGTTTTATTTATTCCGATAAATTTTCGTTACTGTATTCGCGGAGTCACCTAGTGCAG reads 9750 fluorescence intensity (a.u.)
